In PMC5996148:
Some of the results follow. For some assays here: Construct or isoform of the protein are uncertain.

Chains of the proteins cited; added tags and fusions are not shown. Lines headed by an entry give the natural chain unless they say otherwise; changes in a name come on top.
UniProt Q9H7M9, whole entry: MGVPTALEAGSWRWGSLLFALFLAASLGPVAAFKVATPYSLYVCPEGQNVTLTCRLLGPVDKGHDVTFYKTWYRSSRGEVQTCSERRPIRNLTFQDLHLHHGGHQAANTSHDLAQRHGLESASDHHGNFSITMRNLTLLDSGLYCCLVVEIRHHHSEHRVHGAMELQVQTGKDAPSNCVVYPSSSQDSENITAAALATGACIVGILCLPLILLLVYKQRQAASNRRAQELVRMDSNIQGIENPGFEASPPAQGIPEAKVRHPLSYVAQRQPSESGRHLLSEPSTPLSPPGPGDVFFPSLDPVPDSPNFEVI
UniProt Q6NUN7: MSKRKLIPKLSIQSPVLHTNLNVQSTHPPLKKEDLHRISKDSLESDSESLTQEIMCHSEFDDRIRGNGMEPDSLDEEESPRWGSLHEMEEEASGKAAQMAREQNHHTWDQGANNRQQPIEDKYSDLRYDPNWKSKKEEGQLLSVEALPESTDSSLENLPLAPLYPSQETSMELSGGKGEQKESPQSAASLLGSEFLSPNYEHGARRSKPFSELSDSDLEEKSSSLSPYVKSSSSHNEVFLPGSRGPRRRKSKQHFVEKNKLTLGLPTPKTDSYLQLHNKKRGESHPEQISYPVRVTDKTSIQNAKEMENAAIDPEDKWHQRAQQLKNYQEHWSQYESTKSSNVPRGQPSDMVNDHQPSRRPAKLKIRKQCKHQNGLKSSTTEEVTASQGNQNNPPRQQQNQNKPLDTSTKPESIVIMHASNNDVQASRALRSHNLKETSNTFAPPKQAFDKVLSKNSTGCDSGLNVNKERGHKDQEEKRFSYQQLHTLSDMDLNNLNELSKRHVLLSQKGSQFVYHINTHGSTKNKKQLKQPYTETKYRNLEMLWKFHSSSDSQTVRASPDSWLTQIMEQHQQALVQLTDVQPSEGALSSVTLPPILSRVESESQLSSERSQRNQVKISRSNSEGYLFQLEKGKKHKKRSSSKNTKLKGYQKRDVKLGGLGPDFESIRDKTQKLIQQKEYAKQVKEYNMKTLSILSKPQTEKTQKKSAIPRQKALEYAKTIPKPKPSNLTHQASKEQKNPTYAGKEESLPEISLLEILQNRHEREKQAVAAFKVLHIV

Legend:
Assay in all cases: protein microarray (ProtoArray v5.0), streptavidin-Alexa Fluor 647
Details in all cases: 3'-biotin; 20 mM Tris (pH 7.5), 5 mM MgCl2, 100 mM KCl, 0.1% Tween-20, A/T-rich and random oligonucleotide blockers; temperature not stated; high values mean tight binding
[1] = system: C-terminal-binding protein 1 (human)
[2] = system: C-type lectin domain family 12 member A (human)
[3] = system: C-type lectin domain family 2 member D (human)
[4] = system: C10orf116 (human)
[5] = system: C10orf26 (human)
[6] = system: C10orf35 (human)
[7] = system: C10orf46 (human)
[8] = system: C10orf49 (human)
[9] = biological target: C10orf54 (UniProt Q9H7M9)
[10] = biological target: T1, C10orf58 (UniProt Q9BRX8)
T1 sequence: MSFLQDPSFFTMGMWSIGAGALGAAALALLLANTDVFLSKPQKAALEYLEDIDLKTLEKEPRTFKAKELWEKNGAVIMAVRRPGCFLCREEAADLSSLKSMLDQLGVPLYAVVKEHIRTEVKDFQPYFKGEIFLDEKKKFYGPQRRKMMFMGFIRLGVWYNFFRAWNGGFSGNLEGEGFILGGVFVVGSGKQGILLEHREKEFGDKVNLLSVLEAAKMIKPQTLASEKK

[11] = system: C10orf65 (human)
[12] = system: C10orf83 (human)
[13] = system: C11orf45 (human)
[14] = system: C11orf51 (human)
[15] = system: C11orf53 (human)
[16] = system: C11orf59 (human)
[17] = biological target: C11orf63 (UniProt Q6NUN7)
[18] = system: C11orf64 (human)
[19] = system: C11orf65 (human)
[20] = system: C11orf66 (human)

GGGAGGCTGAGGCAGG [G4-1 biotinylated (PQS2)]
binding signal [1]: -0.356 z-score | binding signal [2]: -0.36 z-score | binding signal [3]: -0.321 z-score | binding signal [4]: -0.277 z-score | binding signal [5]: -0.351 z-score | binding signal [6]: -0.331 z-score | binding signal [7]: -0.329 z-score | binding signal [8]: -0.273 z-score | binding signal [9]: -0.303 z-score | binding signal [10]: -0.332 z-score | binding signal [11]: -0.295 z-score | binding signal [12]: -0.269 z-score | binding signal [13]: -0.305 z-score | binding signal [14]: -0.346 z-score | binding signal [15]: -0.355 z-score | binding signal [16]: -0.319 z-score | binding signal [17]: 4.93 z-score | binding signal [18]: -0.317 z-score | binding signal [19]: -0.348 z-score | binding signal [20]: -0.323 z-score
